From PubChem BioAssay AID504467 (National Center for Advancing Translational Sciences (NCATS), 2011)
Among all 330,000 compounds or so, about 7,700 (2.3%) were called active. The shares of active, inactive and inconclusive entries below differ from those in the screen. The call rests on the fitted dose curve; in most records, active means well fitted inhibition curve with a large enough effect; inconclusive means small, poorly fitted or top-dose-only effect, or effect the other way; inactive means flat fitted curve, though single readings scatter. Potencies beside an inconclusive call are fits to weak or partial responses and may not hold up.

Experiment: qHTS screen for small molecules that inhibit ELG1-dependent DNA repair in human embryonic kidney (HEK293T) cells expressing luciferase-tagged ELG1; further: nearly all actives have a fitted effect of over 55% in size
Settings: HEK293T ELG1-luciferase reporter, luminescence, 16 h, DNA damage induced by 5-fluorouridine; series mostly up to 46.1 µM
In short: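 Overnight (16 hr) co-exposure of 2,000 cells/well to 5-fluorouridine and compound at 37 °C preceded detection. Luciferase was quantified via ONE-Glo luminescence; loss of signal denotes inhibition.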
Potency means the concentration at half of the fitted maximal effect.

| SMILES | Potency |
| --- | --- |
| O=C(CNC(=O)c1ccccc1Cl)N/N=C/c1ccc2c(c1)OCO2 | inconclusive: 29.1 µM [inhibitor, single point] |
| CC1CCN(C(=O)/C=C/c2ccc(C(C)(C)C)cc2)CC1 | inconclusive: 16.4 µM [activator, partial curve] |
| O=c1nc(N/N=C/C=C/c2ccccc2)cn[nH]1 | inconclusive: 2.31 µM [activator, full curve] |
| Cc1ccc(N=CC2=C(O)CC(c3ccco3)CC2=O)cc1 (centres undefined) | inactive |
| CCc1ccccc1NC(=O)c1cc(-c2ccco2)on1 | inconclusive: 16.4 µM [activator, single point] |
| O=C1N=C(N2CCN(c3ccccc3)CC2)S/C1=C\c1cn[nH]c1-c1ccccc1 | active: 4.61 µM |
| CCOC(=O)c1[nH]c(C(=O)O)c(CCN(CC)CC)c1C | inconclusive: 20 µM [inhibitor, partial curve, poor fit] |
| CC1(C)Cc2c(sc3c2c(=N)n(Cc2ccco2)c(=O)n3Cc2ccc(Cl)cc2)CO1 | active: 5.8 µM |
| Cc1cc(NC(=O)c2ccc(S(=O)(=O)N3CCCC3)cc2)nc2c1c(=O)oc1ccccc12 | inconclusive: 2.06 µM [inhibitor, full curve] |
| Cc1ccccc1Nc1ncnc2c1cnn2C | inactive |
| COC(=O)c1ccc(COc2ccc(C)cc2[N+](=O)[O-])o1 | inconclusive: 25.9 µM [activator, partial curve] |
| NC(=O)NC(c1ccccc1)c1cccc2ccccc12 (centres undefined) | inconclusive: 2.59 µM [inhibitor, partial curve, poor fit] |
| CC(=O)c1cccc(NC(=O)Nc2ccc3c(c2)N(C)C(=O)CS3)c1 | active: 13 µM |
| CCN(C(=O)COC(=O)c1cc(-c2ccccc2)nc2c1c(C)nn2-c1ccc(C)cc1)C1CCS(=O)(=O)C1 (centres undefined) | inconclusive: 2.59 µM [inhibitor, partial curve, poor fit] |
| COc1cccc(CNc2cc(C)ccn2)c1O | inconclusive: 23.1 µM [activator, partial curve] |
| CCCC(C(=O)NCc1ccco1)N(C(=O)CNS(=O)(=O)c1ccccc1)c1ccc(OC)cc1 (centres undefined) | inactive |
| CCOc1ccc2oc(C(=O)NC3CC(C)(C)NC(C)(C)C3)c(C)c2c1 | inconclusive: 16.4 µM [activator, partial curve, poor fit] |
| O=C(CN1C(=O)NC2(CCCC2)C1=O)NCCc1ccc(Cl)cc1Cl | inactive |
| COc1cccc(NC(=O)[C@@H]2CCCN2C(=O)[C@@H]2Cc3ccccc3CN2C(=O)OC(C)(C)C)c1 | inconclusive: 23.1 µM [activator, single point] |
| CC(=O)Nc1ccc(-c2cn3ccsc3n2)cc1 | inconclusive: 9.2 µM [activator, partial curve] |
| CCOCC(=O)Nc1cc(S(=O)(=O)N2CCOCC2)ccc1N1CCCCC1 | inactive |
| O=c1ccnc(SCCc2ccccc2)[nH]1 | inactive |

Taken from above:
Potency with `CCOc1ccc2oc(C(=O)NC3CC(C)(C)NC(C)(C)C3)c(C)c2c1` is entered as inconclusive: 16.4 µM [activator, partial curve, poor fit]
Potency with `COC(=O)c1ccc(COc2ccc(C)cc2[N+](=O)[O-])o1` is entered as inconclusive: 25.9 µM [activator, partial curve]

(listing goes on)

| SMILES | Potency |
| --- | --- |
| Cn1c(=O)c2c(nc(SCCCC#N)n2Cc2ccccc2F)n(C)c1=O | inconclusive: 32.6 µM [inhibitor, single point] |
| COc1ccc(Nc2cccccc2=O)cc1 | inconclusive: 9.2 µM [inhibitor, partial curve, poor fit] |
| O=C(Nc1ccccc1)Nc1ccc(C(=O)N2CCCC2)cc1 | inconclusive: 2.31 µM [activator, full curve] |
| Cc1cc2sc3nc(=O)n(-c4ccccc4)c(=O)n3c2cc1C | inconclusive: 16.4 µM [activator, partial curve] |
| O=C(OCc1cc(=O)n2ccsc2n1)c1ccccc1NCCO | inconclusive: 18.3 µM [activator, single point] |
| O=C(Nc1ccc(S(=O)(=O)Nc2ncccn2)cc1)c1ccc2ncsc2c1 | inconclusive: 29.1 µM [activator, single point] |
| COc1cc2nc(C3CCC3)nc(N3CCN(c4ccccn4)CC3)c2cc1OC | active: 10.3 µM |
| COc1cc(OC)c(C(=O)OC(C)C(=O)Nc2cc(C(F)(F)F)ccc2Cl)cc1OC (centres undefined) | active: 14.6 µM |
| CC1(C)C(=O)CC[C@@]2(C)[C@H]1CC[C@@]1(C)CC3=C(CC[C@@H]12)[C@@]1(C)CCC(=O)C(C)(C)[C@@H]1CC3 | inactive |
| CCOC(=O)c1sc(NC(=O)c2ccc(S(=O)(=O)N3CCOCC3)cc2)nc1-c1ccccc1 | active: 25.9 µM |
| CN(C)c1nc(OCCNC(=O)COc2ccccc2Cl)nc(N(C)C)n1 | inconclusive: 18.4 µM [inhibitor, single point] |
| CCCN(CCC)c1ncnc2nc[nH]c12 | active: 1.64 µM |
| O=C1CC(c2ccccc2)CC(=NCCO)/C1=C(\O)CCCN1C(=O)c2ccccc2C1=O (centres undefined) | inactive |
| COc1ccc(CN(C)C(C)C(=O)Nc2ccc([N+](=O)[O-])cc2Cl)cc1OC (centres undefined) | active: 9.2 µM |
| COc1ccc(CNC(=O)CSc2nnc(NC(=O)c3ccccc3F)s2)cc1 | inconclusive: 11.6 µM [activator, partial curve] |
| Cc1ccc(C(=O)c2cnc3cc4c(cc3c2S(=O)(=O)c2ccccc2)OCCO4)cc1 | inconclusive: 4.61 µM [activator, partial curve] |
| COc1ccc(OC)c(C2CC(c3c(-c4ccccc4)c4cc(Cl)ccc4[nH]c3=O)=NN2S(C)(=O)=O)c1 (centres undefined) | active: 5.17 µM |
| C/C(=N\NC(=O)c1ccn[nH]1)c1cn(C)nc1C | inconclusive: 14.6 µM [activator, partial curve] |
| C[C@@H]1CN([C@@H](C)CO)C(=O)c2cc(N(C)C)ccc2O[C@@H]1CN(C)S(C)(=O)=O | inconclusive: 20.6 µM [activator, partial curve, poor fit] |
| CC(=O)Nc1ccc(Nc2cc(C)nc3c(-c4ccccc4)c(C)nn23)cc1 | inactive |
| c1ccc(Cn2cc(-c3ccccc3)cn2)cc1 | inconclusive: 25.9 µM [activator, single point] |
| CCC(C)NC(=O)c1ccc(NS(=O)(=O)c2ccc3[nH]c(=O)[nH]c3c2)cc1 (centres undefined) | inconclusive: 20.6 µM [activator, single point] |
